± gives the half width of the 95% confidence interval. For many entries, trypsin and chymotrypsin gave values far apart.
How the values were obtained:
[1] = folding stability dG unfold from trypsin proteolysis; higher = more stable
How it was run: (§1)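 Digests were run with trypsin and chymotrypsin at 11 concentrations in threefold dilutions, plus a no-protease condition, on designed mini-proteins in a PA-tagged cDNA display construct. The mini-proteins were under 80 residues, had no cysteine, and were kept only when AlphaFold2 dimer inter-PAE was above 15. After sequencing, Bayesian fitting of the counts gave K50, from which unfolding free energy was derived against a sequence-predicted unfolded-state K50 and a shared folded-state K50, per protease or combined.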

[2] = folding stability dG unfold from chymotrypsin proteolysis; higher = more stable
How it was run: as §1

[3] = folding stability dG unfold (combined trypsin and chymotrypsin); higher = more stable
How it was run: as §1

| Sequence | folding stability dG unfold [1] [kcal/mol] | folding stability dG unfold [2] [kcal/mol] | folding stability dG unfold [3] [kcal/mol] |
| --- | --- | --- | --- |
| SAGGSAGGSAKKIKIKTKDGKEIEVEIVKYDPEKKEVYIYNKKTGKIYKFSKEDLKKILEELSAGGSAGGSA [r18_161_TrROS_Hall] | 2.47 ± 0.088 | 4.62 ± 0.12 | 4.08 ± 0.36 |
| SAGKYIMHPIKAGAEIKITIPPEGYRIKIGMYYPNGGKMEEHEVPIKPGKTLEFKIPDPNFFVMIEPEPSAG [r5_797_TrROS] | 0.984 ± 0.1 | 1.57 ± 0.25 | 1.3 ± 0.26 |
| SAGSVIRLDSITNSPDGLWLKVTYPDGSVVELPLSPDEPVTVSPDTVTITLPDGPVTLPNTDGKTETLLSAG [r5_999_JUSTAS] | 1.08 ± 0.04 | -1.11 ± 0.15 | 0.486 ± 0.048 |
| SAGGSAGGSAGMAEKLPSLSLFYLPETGDLVLIREETYVDPNDPDKSIVKQEIYVLPPEYSAGGSAGGSAGG [r17_241_TrMRF] | 0.984 ± 0.051 | 1.74 ± 0.13 | 1.51 ± 0.096 |
| SMTVSNPRGKTVTVTVTVTVDPNKKSVTVPVTIRTAGEELTFTFTVPKGVNKPVTFSLTVPLPPGSSVISSA [r9_973_JUSTAS] | 3 ± 0.093 | 4.02 ± 0.059 | 3.63 ± 0.089 |
| SSAEELARRLAAELAERLPPGARITDVRIERRADGTVTITVTVELPDGRTLTVTITLDLATGEITIEIHPSA [r9_219_TrROS_Hall] | 4.95 ± 0.16 | 4.35 ± 0.26 | 4.89 ± 0.19 |
| SAGGSAKELTAEELAKKIAEKLKELYPNVEVKVEVKKKKDGTIVVTIYVRDKKTGEWKKIKEITLKSAGGSA [r15_682_TrROS_Hall] | 2.17 ± 0.24 | 4.59 ± 0.28 | 4.68 ± 0.94 |
| SAGGMTIFLPLENKEEVIEKLKKEGYKPVEVKEEGDVVTIKVEKKKDEKKEEITIVFYPPSKPEEPVSAGGS [r8_307_JUSTAS] | 2.77 ± 0.14 | 2.59 ± 0.085 | 2.68 ± 0.1 |
| SAGGMEIEIEVFEFENKIVILVKADNPIETIKLIINLIKEKFSAKPYEVKVEELPDGYLLIVFDLKPESAGG [r13_158_TrMRF] | 2.58 ± 0.092 | 5.33 ± 0.17 | 5.31 ± 0.24 |
| SAGGKKVKIKVTIVIKVEPGESVEEIAKKLAEELGLKVEVKVEVVKRKDGSLYVVIEVEIELPEELKPSAGG [r13_590_TrROS_Hall] | 2.3 ± 0.16 | 3.18 ± 0.24 | 2.85 ± 0.56 |
| SAGGSAGGSAGGAKTTTLGSESEEEIRAVAAKLPADSTITTNRPGGTSVITVSPNEIVTNSAGGSAGGSAGG [r7_560_JUSTAS] | 0.144 ± 0.043 | 1.22 ± 0.046 | 0.836 ± 0.055 |
| SAGGSAGGSAGKVIIIKVPKKDMTPEEVEKLAKELKEKFPDAKITVIEVKKDGYIIIKIDSAGGSAGGSAGG [r11_365_TrROS_Hall] | 1.91 ± 0.063 | 2.73 ± 0.079 | 2.47 ± 0.11 |
| SAGGRVERLPGPYVRATFFLPEAGTEVEVVFRVPPNGEAEVVAVDVRPVPPLPTDAPAYTGPDGVVVASAGG [r13_646_TrMRF] | 0.375 ± 0.078 | 2.44 ± 0.047 | 1.79 ± 0.12 |
| SAGGSAGGSAGMVTRRMTPEEAEKFIADLPSDWSVEEISPLPENDIVEIKIKVEPPFKLQSAGGSAGGSAGG [r17_98_JUSTAS] | -0.199 ± 0.09 | 1.76 ± 0.035 | 1.28 ± 0.097 |
| GEERTFSLWVKTKSPQEARQLQEKIKDILRGPGYEVKIDDVEVSPNGWMKVNITMRPGMPQDRLRDALRKIS [r1_485_TrROS] | 3.93 ± 0.082 | 5.24 ± 0.06 | 4.99 ± 0.07 |
| SDVVFDPVILAEFTLPAVPGADGRPRPVRVVLVGIRYLGPADTPPEVFEAVARAVVAELEAAGLPVVVLGGS [r1_305_TrMRF] | 0.846 ± 0.018 | 3.68 ± 0.023 | 3.11 ± 0.04 |
| SAGGSAGGSAGSNKVVTFVPRDPATGAPLGERPIPINSSSGSEIESIKKELPPEVVEIVESAGGSAGGSAGG [r17_339_JUSTAS] | 0.605 ± 0.044 | 1.15 ± 0.02 | 1.01 ± 0.066 |
| SAGGSAGGSYWFSITFKINFWVIDGNRIHPVPIEITILIKIPPIPPDEMKPEPTPDGEPKYDFSAGGSAGGS [r12_1031_TrROS] | 2.73 ± 0.15 | 4.64 ± 0.2 | 4.29 ± 0.23 |
| STLTVEEIEELRKLGFELIEVTEDGRYRFYNKETKEVIEVEVKPVPPPKKIELPEEVKSKEEREKLLEELSA [r9_649_TrROS_Hall] | 1.51 ± 0.08 | 3.96 ± 0.18 | 3.66 ± 0.39 |
| SMIEIEVKNEDGETYRIRITFENGEKKEIEFKGIKSLEEAKKAIEELLKLKKEGKKVKIVKIEIEKVDKPSA [r9_1135_TrROS_Hall] | 2.45 ± 0.11 | 5.22 ± 0.12 | 4.93 ± 0.19 |
| SAGGSAGGSAGGKEKKVYEVEIEITFYNKNGKEIAKAKAVVLPDGTIYIKLPNGKWFKLSAGGSAGGSAGGS [r10_972_TrROS_Hall] | 2.18 ± 0.041 | 4.26 ± 0.079 | 3.78 ± 0.18 |
| SAGAGLSAEEIAARLAALAKPGQTLTVTIRDAATGETLTLTVRVPAPPPPAPTTTRTETRTTTTTTTTSAGG [r19_0_TrROS_Hall] | -0.087 ± 0.12 | 1.98 ± 0.034 | 1.51 ± 0.052 |
| SAGEVKIEIKDGTITITVPPGVSEEELKELLKKLFPGYKITKIEIEKLPDGSLKITVHIEKLPPKPEKKSAG [r5_110_TrROS_Hall] | 0.444 ± 0.1 | 2.77 ± 0.12 | 2.26 ± 0.086 |
| SIGGNGLSFMFPVKVTFDMWSMNPNGNMQPVGKMKFEVYVMIRIIPIEDLQKLQKAKEKPPPDPDDKEKQSA [r9_1192_TrROS] | 2.17 ± 0.18 | 4.35 ± 0.084 | 3.65 ± 0.27 |
| SAGGSAGGSAGGEKEPVTLLVVRVDGKLVVVSEEELKKLAEELNVEVEVRLVTVTKEELKSAGGSAGGSAGG [r7_185_TrROS_Hall] | 0.567 ± 0.038 | 1.94 ± 0.033 | 1.57 ± 0.085 |
| SKKKKKKKKKKPKTVIIEIDVKEMSEEEIREILKKLPKNVKRVIIIAKSEEEKEKLKELLKEAGYEVEIVSA [r9_919_TrROS_Hall] | 1.96 ± 0.18 | 1.94 ± 0.069 | 1.76 ± 0.25 |
| SAGMEITTVTLPDGTKLITITLPVPGGPSITADVPYDPATGKVTLLKITGEDPALEALAKEAVEKLKKESAG [r5_266_JUSTAS] | 0.68 ± 0.032 | 1.17 ± 0.053 | 1.09 ± 0.11 |

Two records drawn at random from the list so far:

| Sequence | folding stability dG unfold [1] [kcal/mol] | folding stability dG unfold [2] [kcal/mol] | folding stability dG unfold [3] [kcal/mol] |
| --- | --- | --- | --- |
| SAGSVIRLDSITNSPDGLWLKVTYPDGSVVELPLSPDEPVTVSPDTVTITLPDGPVTLPNTDGKTETLLSAG [r5_999_JUSTAS] | 1.08 ± 0.04 | -1.11 ± 0.15 | 0.486 ± 0.048 |
| SAGKYIMHPIKAGAEIKITIPPEGYRIKIGMYYPNGGKMEEHEVPIKPGKTLEFKIPDPNFFVMIEPEPSAG [r5_797_TrROS] | 0.984 ± 0.1 | 1.57 ± 0.25 | 1.3 ± 0.26 |

Reference: the supplement of paper PMC12764529
